In PubChem BioAssay AID652054 (National Center for Advancing Translational Sciences (NCATS), 2013):
Screen size: about 360,000 compounds; about 9,100 (2.5%) were called active. Inconclusive means that the source gave no clear call. Such entries were picked first, then a sample of the others. Cut-off read from the data, not from the text of the source: active = max response below about -50%; inconclusive = no clear call, values can overlap the other calls; inactive = above that.

Sequences of proteins named here, by UniProt entry; tags and fusion partners are left off.
UniProt P35462, whole entry, looked up: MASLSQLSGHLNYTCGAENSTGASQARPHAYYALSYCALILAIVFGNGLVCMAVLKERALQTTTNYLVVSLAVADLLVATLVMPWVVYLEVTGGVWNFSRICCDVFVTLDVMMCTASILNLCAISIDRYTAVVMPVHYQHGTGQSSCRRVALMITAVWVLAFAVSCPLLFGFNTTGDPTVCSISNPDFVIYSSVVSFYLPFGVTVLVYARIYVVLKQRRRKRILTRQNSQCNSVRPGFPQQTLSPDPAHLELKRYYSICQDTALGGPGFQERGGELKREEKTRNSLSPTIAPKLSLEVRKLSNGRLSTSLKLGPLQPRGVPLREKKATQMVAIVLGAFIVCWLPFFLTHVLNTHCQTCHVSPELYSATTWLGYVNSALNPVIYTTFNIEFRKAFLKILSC

The compounds below were run against D(3) dopamine receptor (Homo sapiens) (UniProt P35462) (assay: qHTS of D3 Dopamine Receptor Antagonist: qHTS). Settings: D3R cells, DiscoveRx beta-arrestin luminescence, antagonist mode; active compounds read low.
In short: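 Cells plated overnight at 1500 cells/well, then exposed to library compounds with dopamine controls for 90 minutes at 37 degrees C. DiscoveRx reagent added for 30–60 minutes at room temperature; luminescence read, quantitative HTS format.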
% is set by controls: 0 for no effect and ±100 for the full control effect.

Max response, negative = inhibition, inactive:
Cc1ccc(S(=O)(=O)N(Cc2ccccc2)Cc2ccco2)cc1 7.15%
CC(=O)Nc1nonc1-c1nc2ccccc2n1N(C(C)=O)C(C)=O 26.1%
Cc1cccc(-n2c(SCC(N)=O)nc3c(c2=O)C2(CCCC2)Cc2ccccc2-3)c1 -14.1%
O=C(NCC1CCN(S(=O)(=O)c2ccccc2)CC1)Nc1ccc(F)cc1F -4.16%
Cn1c(=O)n(C)c2cc([N+](=O)[O-])c(N3CCN(C(=O)c4ccc(Cl)cc4)CC3)cc21 -16.8%
O=[N+]([O-])c1ccc(N2CCN(CC(O)COc3ccccc3)CC2)cc1 (stereo not drawn) -27.1%
Cc1ccc(F)cc1C(=O)N1CCCC(c2cc(C(=O)Nc3ccccc3Cl)no2)C1 (stereo not drawn) 8.36%
CC(OC(=O)CN1C(=O)NC2(CCCC2)C1=O)C(=O)Nc1cccc(Cl)c1Cl (stereo not drawn) 6.42%
O=C(Cc1ccc([N+](=O)[O-])cc1)NCc1ccccc1Cl 4.23%
CCOc1ccc(C2OC(=O)Cc3cc(OC)c(OC)cc32)cc1 (stereo not drawn) -13.1%
Cc1ccc(C)c(NC(=S)N2CCC(NC(=O)c3ccco3)CC2)c1 -5.79%
Cc1ccc(CN2C(=O)CCC2C(=O)NCc2ccccc2Cl)cc1 (stereo not drawn) 7.7%
CCOC(=O)N1CCC(Nc2c(-c3ccccc3)c(=O)c2=O)CC1 20.4%
Cc1cccc(OCCSc2nc3c([nH]2)c(=N)ncn3Cc2ccccc2)c1 3.53%
CCC(=O)NC(=S)Nc1ccccc1OC -20%
O=C(c1cccc(Cl)c1)N1CCC(=O)N([C@H](COCc2cccc(Cl)c2)Cc2ccccc2)CC1 1.6%
CN(C)C(=O)CCc1ccc2c3c([nH]c2c1)[C@]1(CCC2CCCC2)[C@@H](C(=O)N2CCOCC2)C[C@H](CC(=O)NCCC2=CCCCC2)C(=O)N1CC3 33.6%
O=C(COc1ccc2ccc(=O)oc2c1)NC1CCCCC1 -25.5%
Cc1nc(N2CCN(c3ccccc3O)CC2)c2c(-c3ccccc3)csc2n1 115%
CN1CCN(c2ccncc2S(=O)(=O)N2CCCC2)CC1 22.6%
CCOC(=O)CN(C(=O)COC(=O)C1(c2ccccc2)CC1)c1ccc(F)cc1 -27.9%
O=C(Nc1ccc(C(=O)Oc2ccccc2)c(O)c1)c1ccccc1 21%
COc1ccc(NC(=O)COc2ccccc2C(=O)NCC(c2ccccc2)N(C)C)cc1Cl (stereo not drawn) 15.9%
COc1cc(OC)cc(C(=O)NC(C(=O)OCn2nnc3ccccc3c2=O)C(C)C)c1 (stereo not drawn) 12.3%
Oc1ccccc1/C=N/NC(=S)NC1CC2CC1C1C=CCC21 (stereo not drawn) -8.83%
O=C(Nc1nc(-c2ccccc2)nc2ccccc12)c1ccc(F)cc1 3.16%
C=CCSc1nc2ccccc2n1S(=O)(=O)c1ccc(Cl)cc1 -8.49%
COc1ccc(-c2nnc(CSc3nc4ccccc4c(=O)n3C)o2)cc1OC 23.8%

An excerpt taken from the entries so far, as a working copy:
Max response, negative = inhibition, inactive:
O=[N+]([O-])c1ccc(N2CCN(CC(O)COc3ccccc3)CC2)cc1 (stereo not drawn) -27.1%
Cc1ccc(F)cc1C(=O)N1CCCC(c2cc(C(=O)Nc3ccccc3Cl)no2)C1 (stereo not drawn) 8.36%
CC(OC(=O)CN1C(=O)NC2(CCCC2)C1=O)C(=O)Nc1cccc(Cl)c1Cl (stereo not drawn) 6.42%
O=C(Cc1ccc([N+](=O)[O-])cc1)NCc1ccccc1Cl 4.23%
CCOc1ccc(C2OC(=O)Cc3cc(OC)c(OC)cc32)cc1 (stereo not drawn) -13.1%

Following part:

Max response, negative = inhibition, inconclusive:
CCN(CC)C(=O)C1CC(=O)OC1(C)C (stereo not drawn) -39.8%
CC(=O)NC(c1ccccc1)c1cc([N+](=O)[O-])c2cccnc2c1O (stereo not drawn) -44.7%
CCN1CCc2c(sc(NC(=O)C3COc4ccccc4O3)c2C(N)=O)C1 (stereo not drawn) -48.1%
CC1(C)Cc2[nH]c(=S)c(C#N)cc2CO1 -34.1%
COc1ccc(OC)c(C2=NOC(C(=O)Nc3cccnc3)C2)c1 (stereo not drawn) -32.5%
Cc1ccc(Nc2n[nH]c(=S)s2)cc1F -32.3%
CCOC(=O)C1(CC2CC2)CCN(Cc2cnc(N(C)C)s2)CC1 -42.9%
Cc1ccc(S(=O)(=O)N(C)C)cc1NC(=O)COC(=O)Cc1cccs1 -32.9%
COc1ccc(OCCNS(=O)(=O)Cc2ccccc2)cc1 -33.6%
N#Cc1ccc(OCC(=O)N(C2CCCCC2)C2CCS(=O)(=O)C2)cc1 (stereo not drawn) -35.3%
COc1ccc(Cc2nnc(NS(=O)(=O)Cc3ccccc3)s2)cc1 -39.8%
O=C(CSc1nnc(CNc2ccc(Cl)cc2)n1Cc1ccccc1)NCc1ccco1 -34.3%
O=C(C1CCN(S(=O)(=O)Cc2ccccc2)CC1)N1CCCc2ccccc21 -41.4%
COc1ccc(-n2c(SCC(=O)Nc3nccs3)nnc2-c2ccoc2C)cc1 -37.1%
FC(F)(F)c1cc(-c2ccco2)nc(N2CCN(Cc3ccccc3)CC2)n1 -47.1%
O=C(COC(=O)c1cc([N+](=O)[O-])ccc1N1CCCC1)Nc1ccccc1OC(F)F -33.1%
CCC(=O)c1ccc(OCC(=O)Nc2nn3cnnc3s2)cc1 -30.9%
NC(=O)c1ccccc1NS(=O)(=O)c1ccccc1 -41.2%
CCOc1ccc(NC(=O)c2cccnc2C(=O)O)cc1 -42.2%
Cc1cc(C)cc(NS(=O)(=O)c2ccc3oc(=O)ccc3c2)c1 -30.2%
CCC(C)NCCOCCOc1cc(C)c(Cl)c(C)c1 (stereo not drawn) -32%
CC(=O)NS(=O)(=O)c1ccc(NC(=O)c2cc(-c3ccc(C)cc3)nc3ccccc23)cc1 -30.3%
O=S(=O)(NCc1ccc(F)cc1)c1ccc(-n2cccn2)cc1 -32%
COc1ccccc1NS(=O)(=O)c1cccc(C(=O)N/N=C/c2cn(-c3ccccc3)nc2-c2ccccc2)c1 -43.5%
O=S(=O)(c1cccs1)N1CCN(CC(O)COC2CCCc3ccccc32)CC1 (stereo not drawn) -35.7%
COc1ccc(CCC(=O)Nc2c(-c3ccc(N(C)C)cc3)[nH][nH]c2=O)cc1 -49.8%
CCN1CCN(C(c2cccs2)C(C)NC(=O)c2cccc(OC)c2OC)CC1 (stereo not drawn) -41.2%
COc1ccc(CN(C)C(=O)CNC(=O)c2ccc(C)cc2)cc1 -44.9%
Cc1cc(N(CCO)CCO)ccc1C(c1ccc(N(CCO)CCO)cc1C)c1ccccc1Cl -44.9%
N#Cc1ccc(N2CCCC2C(=O)O)c([N+](=O)[O-])c1 (stereo not drawn) -32%
CN(C(=O)COC(=O)c1ccc(Br)o1)c1c(N)n(Cc2ccccc2)c(=O)[nH]c1=O -32.1%
CC(C)NC(=O)COc1ccc(/C=N/NS(=O)(=O)c2ccccc2)cc1 -39.3%
O=C(Cc1ccc(-n2c(=O)c3ccccc3n(Cc3ccccc3F)c2=O)cc1)NCC1CCCO1 (stereo not drawn) -36.6%
O=C(COc1ccc2c(-c3ccccc3)cc(=O)oc2c1)Nc1ccc(CCO)cc1 -32.9%
O=C(C1CCN(CC2CCCCC2)CC1)N1CCCC1 -45.6%
COCCN(C(=O)c1ccco1)c1nnc(-c2ccc(OC)c(OC)c2)s1 -30.8%
CCOc1cc(-c2cc(-c3ccc(C)o3)nc(N)c2C#N)ccc1O -47.2%
COC(=O)c1ccc(C(=O)Nc2ccc(F)cc2)cc1 -35.5%
CSc1ccc(N2CCN(CCCNC(=O)Nc3ccccc3F)CC2)cc1 -38.6%
COc1cccc(N2CC(C(=O)NC3CCCCC3)CC2=O)c1 (stereo not drawn) -34.6%

Max response, negative = inhibition, active:
C(=C\c1ccccc1)/CN1CCN(Cc2ccc3c(c2)OCO3)CC1 -60.8%
CN1CCCN(C(c2ccccc2)c2ccc(Cl)cc2)CC1 (stereo not drawn) -113%
COc1cccc(C(C)(O)c2nc(-c3ccoc3)cs2)c1 (stereo not drawn) -94.7%
OCc1ccccc1OCCCN1CCC(Cc2ccccc2)CC1 -66%
Cc1ccc(-n2ncc(Br)c(Br)c2=O)cc1 -75.8%
Cc1cc(Br)ccc1NC(=O)CNC(=O)Cn1ncc(Cl)c(Cl)c1=O -82.7%
COc1cc(CN2CCC(C(=O)NC(c3ccc(-c4ccccc4)cc3)c3cnccn3)CC2)cc(OC)c1 (stereo not drawn) -53.6%
CN(C)c1ccc(NC(=S)Nc2ccc3c(c2)c(=O)n(C)n3-c2ccc(C(C)(C)C)cc2)cc1 -54.1%
COC(=O)c1ccccc1NC(=O)CN1CCN(C23CC4CC(CC(C4)C2)C3)CC1 -75.9%
O=C(Oc1c(CN2CCOCC2)cc(Cl)c2cccnc12)c1ccc(F)cc1 -61.4%
C(=N\Nc1nc(Nc2ccccc2)nc(N2CCOCC2)n1)/c1c[nH]c2ccccc12 -62.4%
Cc1ccc(NC(=O)CN(C)C(=O)COc2cc(F)ccc2[N+](=O)[O-])cc1 -53.1%
Cc1ccc(SCC(=O)Nc2ccc(N3CCN(C)CC3)c(F)c2)cc1 -52.8%
CSc1nc(NCC(C)C)c2c3c(sc2n1)CN(C)CC3 -72.1%
COc1cc(OC)c(OC)cc1CN(C)CC1CCCN(CCc2ccccc2F)C1 (stereo not drawn) -51.2%
CCC(CC)C(=O)N(C)c1c(C)nc2c(OCc3cccc(Cl)c3)cccn12 -61.9%
CCN(c1ccccc1)S(=O)(=O)c1ccc(C(=O)NCC(c2cccs2)N(C)C)cc1 (stereo not drawn) -51.9%
COc1ccccc1CNCC(=O)Nc1cc(S(=O)(=O)N2CCCCC2)ccc1C -50.7%
COc1ccc2nc(N(CCN(C)C)C(=O)c3ccc4ccccc4c3)sc2c1 -62.7%
COc1cc(/C=N/n2c(-c3cc(C)[nH]n3)n[nH]c2=S)cc(OC)c1OC -51.4%
